From PMC2362351
No constants are given. Whether binding was seen depends on the method and setting. In cells and extracts the contact can be indirect. For some assays here: A result given as binding can be weak or reduced; the word gives no strength. Values belong to the molecule of their own block, whether it stands above or below them.

The chains behind the UniProt entries cited, without tags or fusion partners. Where a name states a change or a piece, a line headed by the entry shows the natural chain unless it says otherwise.
UniProt P12830: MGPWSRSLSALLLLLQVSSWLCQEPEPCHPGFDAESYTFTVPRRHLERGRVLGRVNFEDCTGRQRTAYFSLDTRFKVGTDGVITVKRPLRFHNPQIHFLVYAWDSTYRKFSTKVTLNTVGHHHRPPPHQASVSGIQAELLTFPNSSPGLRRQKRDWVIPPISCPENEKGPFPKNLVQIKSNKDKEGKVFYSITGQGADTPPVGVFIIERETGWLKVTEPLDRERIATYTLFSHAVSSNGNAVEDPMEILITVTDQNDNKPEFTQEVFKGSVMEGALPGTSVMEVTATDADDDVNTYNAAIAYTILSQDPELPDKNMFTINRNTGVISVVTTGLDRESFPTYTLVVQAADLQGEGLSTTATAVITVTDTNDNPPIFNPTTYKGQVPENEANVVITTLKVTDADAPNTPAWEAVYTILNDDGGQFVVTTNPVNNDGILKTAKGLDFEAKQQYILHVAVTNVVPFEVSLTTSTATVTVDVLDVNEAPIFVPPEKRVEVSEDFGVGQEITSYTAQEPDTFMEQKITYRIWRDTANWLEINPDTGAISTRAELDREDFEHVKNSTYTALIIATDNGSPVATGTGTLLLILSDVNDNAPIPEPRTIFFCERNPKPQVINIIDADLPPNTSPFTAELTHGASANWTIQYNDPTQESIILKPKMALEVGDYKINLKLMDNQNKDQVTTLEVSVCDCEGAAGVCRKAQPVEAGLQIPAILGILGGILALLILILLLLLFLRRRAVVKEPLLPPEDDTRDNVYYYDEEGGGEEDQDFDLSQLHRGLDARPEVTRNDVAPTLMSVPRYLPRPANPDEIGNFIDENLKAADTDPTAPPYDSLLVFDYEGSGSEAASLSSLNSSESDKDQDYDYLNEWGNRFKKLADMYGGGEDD

Assays:
[1] = target: T1, gamma-catenin (human (endogenous in HT29, Kato 3, MKN7, MKN45)) (UniProt P14923); experiment: co-IP; HT29 cell extract (0.5% Triton X-100 buffer: 50 mM NaCl, 10 mM Pipes, MgCl2, 300 mM sucrose), endogenous proteins; precleared with mouse IgG; antibody on protein G sepharose 2 h at 4 C; washed with high stringency, high salt and low salt buffers; SDS-PAGE and Western blot
T1 sequence: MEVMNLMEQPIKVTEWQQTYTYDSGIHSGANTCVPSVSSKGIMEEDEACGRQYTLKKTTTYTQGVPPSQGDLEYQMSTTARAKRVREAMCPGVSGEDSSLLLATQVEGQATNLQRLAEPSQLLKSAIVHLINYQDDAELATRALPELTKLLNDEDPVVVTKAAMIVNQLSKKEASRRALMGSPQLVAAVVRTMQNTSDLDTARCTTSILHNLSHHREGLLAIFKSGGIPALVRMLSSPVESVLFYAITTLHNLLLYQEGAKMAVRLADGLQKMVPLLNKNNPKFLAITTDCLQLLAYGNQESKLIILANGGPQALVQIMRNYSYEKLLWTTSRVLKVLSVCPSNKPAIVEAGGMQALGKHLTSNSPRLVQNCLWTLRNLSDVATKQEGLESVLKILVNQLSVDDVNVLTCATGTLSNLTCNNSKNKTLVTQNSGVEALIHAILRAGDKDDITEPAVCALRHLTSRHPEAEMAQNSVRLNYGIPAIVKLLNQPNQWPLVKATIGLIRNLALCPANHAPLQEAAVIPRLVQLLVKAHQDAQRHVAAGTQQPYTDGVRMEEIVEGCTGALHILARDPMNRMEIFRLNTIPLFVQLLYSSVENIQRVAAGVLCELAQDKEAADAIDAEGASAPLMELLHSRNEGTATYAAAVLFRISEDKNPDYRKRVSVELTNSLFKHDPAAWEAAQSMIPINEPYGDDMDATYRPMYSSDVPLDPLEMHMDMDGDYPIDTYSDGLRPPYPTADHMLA

[2] = target: T1, gamma-catenin (human (endogenous in HT29, Kato 3, MKN7, MKN45)); experiment: co-IP; MKN45 cell extract, endogenous proteins; same procedure (Triton X-100 lysis, protein G sepharose, high stringency, high salt and low salt washes, Western blot)
[3] = target: T2, p120ctn (human (endogenous in Kato 3, MKN7, MKN45)) (UniProt O60716); experiment: as above
T2 sequence: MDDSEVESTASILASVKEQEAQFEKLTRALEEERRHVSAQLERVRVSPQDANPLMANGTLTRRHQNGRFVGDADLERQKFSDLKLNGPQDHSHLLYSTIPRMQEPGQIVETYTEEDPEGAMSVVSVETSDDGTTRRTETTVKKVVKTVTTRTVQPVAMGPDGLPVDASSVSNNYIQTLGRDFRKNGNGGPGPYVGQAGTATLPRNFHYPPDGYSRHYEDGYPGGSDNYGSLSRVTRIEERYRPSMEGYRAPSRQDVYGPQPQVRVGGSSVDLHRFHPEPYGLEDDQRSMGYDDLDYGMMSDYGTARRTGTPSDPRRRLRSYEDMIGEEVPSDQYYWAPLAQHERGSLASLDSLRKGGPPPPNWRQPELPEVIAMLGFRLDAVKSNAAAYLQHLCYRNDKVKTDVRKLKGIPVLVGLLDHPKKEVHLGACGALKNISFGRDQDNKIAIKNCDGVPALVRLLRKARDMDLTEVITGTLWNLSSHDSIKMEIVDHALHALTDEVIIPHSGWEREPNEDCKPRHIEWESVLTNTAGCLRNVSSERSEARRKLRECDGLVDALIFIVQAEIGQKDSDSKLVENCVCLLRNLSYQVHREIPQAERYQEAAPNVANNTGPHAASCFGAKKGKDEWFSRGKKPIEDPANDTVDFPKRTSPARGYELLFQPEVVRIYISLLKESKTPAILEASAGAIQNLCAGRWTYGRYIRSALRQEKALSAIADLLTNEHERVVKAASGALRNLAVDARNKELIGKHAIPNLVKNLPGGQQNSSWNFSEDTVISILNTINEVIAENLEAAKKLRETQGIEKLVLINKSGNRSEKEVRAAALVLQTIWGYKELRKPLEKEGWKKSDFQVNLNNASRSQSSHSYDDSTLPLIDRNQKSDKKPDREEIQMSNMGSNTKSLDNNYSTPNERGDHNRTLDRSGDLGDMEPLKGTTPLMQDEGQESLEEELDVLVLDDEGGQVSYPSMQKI

[4] = target: E-cadherin (human (endogenous in HT29, HSC39, MKN7)); experiment: co-IP; MKN7 cell extract, endogenous proteins; same procedure (Triton X-100 lysis, protein G sepharose, high stringency, high salt and low salt washes, Western blot)

binding [1]: binds
Molecule: E-cadherin (human (endogenous in HT29, HSC39, MKN7))

binding [2]: binds
binding [3]: no binding
Molecule: E-cadherin of MKN45 (mutant) (from UniProt P12830)

binding [1]: binds
Molecule: alpha-catenin

binding [4]: binds
B1: gamma-catenin (protein, UniProt P14923 1-745)
chain: MEVMNLMEQPIKVTEWQQTYTYDSGIHSGANTCVPSVSSKGIMEEDEACGRQYTLKKTTTYTQGVPPSQGDLEYQMSTTARAKRVREAMCPGVSGEDSSLLLATQVEGQATNLQRLAEPSQLLKSAIVHLINYQDDAELATRALPELTKLLNDEDPVVVTKAAMIVNQLSKKEASRRALMGSPQLVAAVVRTMQNTSDLDTARCTTSILHNLSHHREGLLAIFKSGGIPALVRMLSSPVESVLFYAITTLHNLLLYQEGAKMAVRLADGLQKMVPLLNKNNPKFLAITTDCLQLLAYGNQESKLIILANGGPQALVQIMRNYSYEKLLWTTSRVLKVLSVCPSNKPAIVEAGGMQALGKHLTSNSPRLVQNCLWTLRNLSDVATKQEGLESVLKILVNQLSVDDVNVLTCATGTLSNLTCNNSKNKTLVTQNSGVEALIHAILRAGDKDDITEPAVCALRHLTSRHPEAEMAQNSVRLNYGIPAIVKLLNQPNQWPLVKATIGLIRNLALCPANHAPLQEAAVIPRLVQLLVKAHQDAQRHVAAGTQQPYTDGVRMEEIVEGCTGALHILARDPMNRMEIFRLNTIPLFVQLLYSSVENIQRVAAGVLCELAQDKEAADAIDAEGASAPLMELLHSRNEGTATYAAAVLFRISEDKNPDYRKRVSVELTNSLFKHDPAAWEAAQSMIPINEPYGDDMDATYRPMYSSDVPLDPLEMHMDMDGDYPIDTYSDGLRPPYPTADHMLA
